No constants are given. Whether binding was seen depends on the method and setting. In cells and extracts the contact can be indirect. Binding can be weak; no strength is given.
Biological target: T1, HDAC7 (UniProt Q8WUI4)
T1 sequence: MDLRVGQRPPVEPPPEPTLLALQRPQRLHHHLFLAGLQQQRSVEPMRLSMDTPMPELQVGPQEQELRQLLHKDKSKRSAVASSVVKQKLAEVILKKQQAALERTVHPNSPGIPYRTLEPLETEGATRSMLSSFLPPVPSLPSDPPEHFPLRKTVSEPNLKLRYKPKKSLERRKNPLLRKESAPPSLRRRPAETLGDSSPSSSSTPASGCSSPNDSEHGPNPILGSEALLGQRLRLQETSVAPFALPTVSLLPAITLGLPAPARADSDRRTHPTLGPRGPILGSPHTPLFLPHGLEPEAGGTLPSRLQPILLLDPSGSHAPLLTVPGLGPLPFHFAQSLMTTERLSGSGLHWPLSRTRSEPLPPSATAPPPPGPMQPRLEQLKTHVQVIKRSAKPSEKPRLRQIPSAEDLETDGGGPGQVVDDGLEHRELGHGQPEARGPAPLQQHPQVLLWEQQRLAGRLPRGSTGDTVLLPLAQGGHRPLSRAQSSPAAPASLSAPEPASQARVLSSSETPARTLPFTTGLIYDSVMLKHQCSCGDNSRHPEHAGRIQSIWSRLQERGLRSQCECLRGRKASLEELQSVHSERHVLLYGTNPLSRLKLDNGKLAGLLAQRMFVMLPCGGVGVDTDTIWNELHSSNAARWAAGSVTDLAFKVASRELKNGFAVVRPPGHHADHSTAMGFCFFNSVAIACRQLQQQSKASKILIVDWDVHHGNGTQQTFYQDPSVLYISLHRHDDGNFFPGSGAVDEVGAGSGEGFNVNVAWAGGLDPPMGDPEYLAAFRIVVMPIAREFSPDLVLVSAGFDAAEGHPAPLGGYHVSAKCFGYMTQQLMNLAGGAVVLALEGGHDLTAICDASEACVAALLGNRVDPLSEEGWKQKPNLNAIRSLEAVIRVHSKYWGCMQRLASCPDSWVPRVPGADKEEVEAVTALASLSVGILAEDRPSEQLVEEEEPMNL
Assay: co-IP; lysates of GSC20, in part transfected with the indicated plasmids or vectors (Figure 2B, K, N, Q; TRIM28 knock-down in Figure 2Q)

“RING domain of MYCBP2 (human) (domain or fragment)” was tested, and the binding was “binds”.
